Values quoted from earlier work, collected in Sander's compilation of Henry's law constants (doi:10.1063/1.555654).

Experiment: Henry solubility constant Hcp at 298.15 K (mol/(m3 Pa))
Details: reference: Mackay and Shiu (1981); cited value

For `C=CCC=C` [1,4-pentadiene], the “Henry solubility constant Hcp” value is given as 8.3e-05.
